Among the data in PubChem BioAssay AID328 (DTP/NCI, 2004) are survivor count and T/C values, retold here.

The list shows only some results of the screen, not a fair sample: it is rich in T/C values a quarter to a half above the control, in often repeated tests (any T/C) and in doses without a T/C. Other doses and runs of a compound stand elsewhere. T/C gives the treated animals as a percentage of the vehicle group. Some doses have a count of surviving animals in place of a T/C: the source holds a T/C of zero for them, seemingly a mark for toxic or unscored doses. Some doses without a T/C left all or most animals alive at the check, yet need not have been tolerated: the source hardly ever lists a survival T/C far under the control, and the zero likely stands for such cases as well. Survivors were counted at the toxicity check, usually on the fifth day, unless a day is given; later deaths do not show. Schedule codes are those of the source, taken here to give the interval after Q, in days (D) or hours (H), and the number of doses after X. Additions like (4×) count equal records among those shown. Some doses were run more than once; their values stand side by side, smallest first. Where survival is the endpoint, the PubChem record calls one and a half times the control and up active, and a quarter to a half above the control has no call in these data; cut-offs in other NCI protocols can differ. Some T/C values carry the count of animals alive at the toxicity check (mostly the fifth day); without a count, all were alive then.

This test concerns BDF1 mice, P388 leukemia ip, median survival T/C. Briefly: NCI In Vivo Anticancer Drug Screen. Data for tumor model P388 Leukemia (intraperitoneal) in B6D2F1 (BDF1) mice. As to conditions: T/C endpoint: median survival time, higher T/C = longer survival. In short, it runs like this: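 Each value expresses how treatment altered survival: treated-mouse outcome over vehicle-mouse outcome, both groups bearing the transplanted tumour.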

Setting [1] is: dose: 200.0 mg/kg/injection, schedule: Q01DX009 (ip), vehicle: saline with Tween-80.
Setting [2] is: dose: 50.0 mg/kg/injection, schedule: Q01DX009 (ip), vehicle: saline with Tween-80.
[3] abbreviates: dose: 100.0 mg/kg/injection, schedule: Q01DX009 (ip), vehicle: saline with Tween-80.
Setting [4] is: dose: 100.0 mg/kg/injection, schedule: Q01DX009 (ip), vehicle: Klucel (hydroxypropylcellulose) (HPC).
The mark [5] stands for this setting: dose: 400.0 mg/kg/injection, schedule: Q04DX003 (ip), vehicle: saline with Tween-80.
The mark [6] stands for this setting: dose: 400.0 mg/kg/injection, schedule: Q01DX009 (ip), vehicle: Klucel (hydroxypropylcellulose) (HPC).
Where [7] appears, read: dose: 400.0 mg/kg/injection, schedule: Q01DX009 (ip), vehicle: saline with Tween-80.

As to `O=C(Oc1cc(Cl)ccc1Cl)c1ccccc1`, the survivor count under setting [1] is on record as 6 of 6.
Turning to `COC1=CC(=O)c2c(O)cc(OC)cc2C1=O`, the T/C was 129 % of control (dose: 5.0 mg/kg/injection, schedule: Q01DX009 (ip), vehicle: saline with Tween-80) and 132 % of control (dose: 10.0 mg/kg/injection, schedule: Q01DX009 (ip), vehicle: saline with Tween-80).
As for `Clc1c(Cl)c(C[P+](CCP(c2ccccc2)c2ccccc2)(c2ccccc2)c2ccccc2)c(Cl)c(Cl)c1C[P+](CCP(c1ccccc1)c1ccccc1)(c1ccccc1)c1ccccc1`, the T/C is 129 % of control (dose: 6.25 mg/kg/injection, schedule: Q01DX009 (ip), vehicle: suspension in saline) and 149 % of control (dose: 12.5 mg/kg/injection, schedule: Q01DX009 (ip), vehicle: suspension in saline). For the same molecule, the survivor count under setting [2] was 0 of 6, the survivor count under setting [3] was 0 of 6 and the survivor count under setting [1] is listed as 0 of 6.
Consider `Cc1ccc(NCCNCC(C)(C)O)c2c(=O)c3ccccc3sc12`, for which the T/C (dose: 115.0 mg/kg/injection, schedule: Q04DX003 (ip), vehicle: saline) is 131 % of control [5 of 6 alive]. Besides, the survivor count (dose: 170.0 mg/kg/injection, schedule: Q04DX003 (ip), vehicle: saline) is listed as 3 of 6.
As for `CCCCCCCCCCCCCCCCn1/c(=N/N=C/c2ccccc2S(=O)(=O)O)sc2ccccc21`, under setting [4], the survivor count is reported as 5 of 6.
With `COC(=O)C(CSCSC)NC(=O)/C=C/c1ccccc1Cl` (configuration not stated), the survivor count under setting [5] was 6 of 6.
As to `CC(NC(=O)C(N)CSC(c1ccccc1)(c1ccccc1)c1ccccc1)C(=O)O` (configuration not stated), the T/C (dose: 133.0 mg/kg/injection, schedule: Q04DX003 (ip), vehicle: saline with Tween-80) is 140 % of control and the T/C (dose: 133.0 mg/kg/injection, schedule: Q04DX003 (ip), vehicle: saline) is 131 % of control. Moreover, the survivor count (dose: 200.0 mg/kg/injection, schedule: Q04DX003 (ip), vehicle: saline) is recorded as 2 of 6; the survivor count (dose: 300.0 mg/kg/injection, schedule: Q04DX003 (ip), vehicle: saline with Tween-80) was 3 of 6; the survivor count (dose: 300.0 mg/kg/injection, schedule: Q04DX003 (ip), vehicle: saline) is reported as 0 of 6.
Turning to `O=C(CBr)N1CCC2(CC1)SSC1(CCN(C(=O)CBr)CC1)S2`, the T/C was 109 % of control (dose: 12.5 mg/kg/injection, schedule: Q01DX009 (ip), vehicle: saline with Tween-80, evaluated on day 20); 103 % of control (dose: 12.5 mg/kg/injection, schedule: Q01DX009 (ip), vehicle: saline with Tween-80, evaluated on day 22); 114 and 125 % of control (dose: 12.5 mg/kg/injection, schedule: Q01DX009 (ip), vehicle: saline with Tween-80, evaluated on day 30); 127 % of control (dose: 25.0 mg/kg/injection, schedule: Q01DX009 (ip), vehicle: saline with Tween-80, evaluated on day 20); 99 % of control (dose: 25.0 mg/kg/injection, schedule: Q01DX009 (ip), vehicle: saline with Tween-80, evaluated on day 22); 114 % of control (2×) (dose: 25.0 mg/kg/injection, schedule: Q01DX009 (ip), vehicle: saline with Tween-80, evaluated on day 30). Besides, the T/C runs as follows: (dose: 50.0 mg/kg/injection, schedule: Q01DX009 (ip), vehicle: saline with Tween-80, evaluated on day 20) 123 % of control; (dose: 50.0 mg/kg/injection, schedule: Q01DX009 (ip), vehicle: saline with Tween-80, evaluated on day 22) 100 % of control [5 of 6 alive]; (dose: 50.0 mg/kg/injection, schedule: Q01DX009 (ip), vehicle: saline with Tween-80, evaluated on day 30) 118 [5 of 6 alive] and 122 % of control. In addition, the survivor count runs as follows: under setting [3], 0 of 6; (dose: 100.0 mg/kg/injection, schedule: Q04DX003 (ip), vehicle: saline with Tween-80) 2 of 6; under setting [1], 4 of 6; under setting [5], 0 of 6.
With `C[C@]12CC[C@@H]3c4ccc(O)cc4CC[C@H]3[C@@H]1C[C@@H](O)[C@@H]2O`, the survivor count was 6 of 6 under setting [4]; 6 of 6 (dose: 200.0 mg/kg/injection, schedule: Q01DX009 (ip), vehicle: Klucel (hydroxypropylcellulose) (HPC)); 6 of 6 under setting [6].
Regarding `COC1CC(N=[N+]=[N-])C(OC(=O)c2ccccc2)C(C)O1` (configuration not stated), the survivor count reads like this: (dose: 25.0 mg/kg/injection, schedule: Q01DX009 (ip), vehicle: saline with Tween-80) 6 of 6; under setting [2], 5 of 6 and 6 of 6; under setting [3], 2 of 6; under setting [1], 4 of 6 (2×); under setting [7], 6 of 6.
With `CC(C)CCC[C@@H](C)[C@H]1CC[C@H]2[C@@H]3CC=C4C[C@@H](O)CC[C@]4(C)[C@H]3CC[C@]12C`, the survivor count (dose: 1600.0 mg/kg/injection, schedule: Q01DX009 (ip), vehicle: other) is recorded as 4 of 6.
`CCC(SC(CC(=O)O)C(=O)O)C(=O)O` (configuration not stated): the survivor count was 2 of 6 (dose: 100.0 mg/kg/injection, schedule: Q01DX001 (ip), vehicle: saline with Tween-80); 2 of 6 (dose: 200.0 mg/kg/injection, schedule: Q01DX001 (ip), vehicle: saline with Tween-80); 0 of 6 (dose: 400.0 mg/kg/injection, schedule: Q01DX001 (ip), vehicle: saline with Tween-80).
For `C=CCNC(=O)C(Br)(CC)CC`, the survivor count by setting is: (dose: 100.0 mg/kg/injection, schedule: Q01DX009 (ip), vehicle: saline) 6 of 6; (dose: 200.0 mg/kg/injection, schedule: Q01DX009 (ip), vehicle: saline) 6 of 6.
For the molecule `CC(=O)/C=C/c1ccccc1`, under setting [7], the T/C is 143 % of control. The survivor count (dose: 600.0 mg/kg/injection, schedule: Q01DX009 (ip), vehicle: saline with Tween-80) is listed as 0 of 6.
For `COc1cc([C@@H]2c3cc4c(c(O)c3C[C@H]3COC(=O)[C@@H]32)OCO4)cc(OC)c1O`, the T/C by setting is: (dose: 0.5 mg/kg/injection, schedule: Q01DX010 (ip), vehicle: carboxymethylcellulose (CMC)) 125 % of control; (dose: 1.0 mg/kg/injection, schedule: Q01DX001 (ip), vehicle: other) 126 % of control; (dose: 2.0 mg/kg/injection, schedule: Q01DX001 (ip), vehicle: other) 126 % of control; (dose: 4.0 mg/kg/injection, schedule: Q01DX001 (ip), vehicle: other) 126 % of control [4 of 6 alive]; (dose: 125.0 micrograms/kg/injection, schedule: Q01DX010 (ip), vehicle: other) 135 % of control; (dose: 250.0 micrograms/kg/injection, schedule: Q01DX010 (ip), vehicle: other) 140 % of control. The survivor count is, setting by setting: (dose: 1.0 mg/kg/injection, schedule: Q01DX010 (ip), vehicle: other) 6 of 6; (dose: 2.0 mg/kg/injection, schedule: Q01DX010 (ip), vehicle: carboxymethylcellulose (CMC)) 4 of 6; (dose: 2.0 mg/kg/injection, schedule: Q01DX010 (ip), vehicle: other) 4 of 6; (dose: 4.0 mg/kg/injection, schedule: Q01DX010 (ip), vehicle: carboxymethylcellulose (CMC)) 1 of 6; (dose: 4.0 mg/kg/injection, schedule: Q01DX010 (ip), vehicle: other) 3 of 6.
Turning to `CC(=O)OC1(C)CC(C)C(O)C(C(O)CC2CC(=O)NC(=O)C2)C1` (configuration not stated), the T/C by setting is: (dose: 1.0 mg/kg/injection, schedule: Q01DX010 (ip), vehicle: water, evaluated on day 30) 140 % of control; (dose: 1.0 mg/kg/injection, schedule: Q01DX010 (ip), vehicle: water, run until all animals had died) 140 % of control. The survivor count is given as 5 of 6 (dose: 6.0 mg/kg/injection, schedule: Q01DX010 (ip), vehicle: other) and 3 of 6 (dose: 9.0 mg/kg/injection, schedule: Q01DX010 (ip), vehicle: other).
As to `CC1(C)CC2C(=O)c3ccccc3NC2c2ccccc21` (configuration not stated), the T/C under setting [6] is 125 % of control.
